Results from patent publication US5264372A (Amylin Pharmaceuticals, Inc., priority 1991, dated 1993).
“And” between values parts separate entries of the source, which are not always exact repeats. Equal entries are not always repeated.

Tested on: ^125 I-h CGRP binding sites in nucleus accumbens and surrounding regions
Test: Competition for 125I-h CGRP binding to nucleus accumbens area (basal forebrain) membranes
Set-up: species or system rat
Conditions: in brackets after IC50
Source text: From the ventral surface of rat brains, cuts were made rostral to the hypothalamus bounded laterally by the olfactory tracts and extending at a 45 angle medially from these tracts. This tissue, containing the nucleus accumbens and surrounding regions, was collected and weighed, and membranes prepared as described in Example I. The region from which tissue was collected as described above is here termed the basal forebrain, and includes the nucleus accumbens and surrounding regions.

Compound: CC(C)C[C@H](NC(=O)[C@H](CC(N)=O)NC(=O)[C@H](CC(N)=O)NC(=O)[C@H](CO)NC(=O)[C@H](CO)NC(=O)[C@H](CCCNC(=N)N)NC(=O)[C@@H](NC(=O)[C@H](CC(C)C)NC(=O)[C@H](Cc1ccccc1)NC(=O)[C@H](CC(N)=O)NC(=O)[C@H](C)NC(=O)[C@H](CC(C)C)NC(=O)[C@H](CCCNC(=N)N)NC(=O)[C@H](CCC(N)=O)NC(=O)[C@@H](NC(=O)[C@H](C)NC(=O)[C@@H]1CSSC[C@H](NC(=O)[C@@H](N)CCCCN)C(=O)N[C@@H](CC(N)=O)C(=O)N[C@@H]([C@@H](C)O)C(=O)N[C@@H](C)C(=O)N[C@@H]([C@@H](C)O)C(=O)N1)[C@@H](C)O)C(C)C)C(=O)NCC(=O)N1CCC[C@H]1C(=O)N[C@H](C(=O)N[C@@H](CC(C)C)C(=O)N1CCC[C@H]1C(=O)N1CCC[C@H]1C(=O)N[C@H](C(=O)N[C@@H](CC(N)=O)C(=O)N[C@H](C(=O)NCC(=O)N[C@@H](CO)C(=O)N[C@@H](CC(N)=O)C(=O)N[C@H](C(=O)N[C@@H](Cc1ccc(O)cc1)C(N)=O)[C@@H](C)O)C(C)C)[C@@H](C)O)C(C)C [r amylin, rat amylin]
- Share of sites in 2 site fit: 57% and 46%
